Some of the results follow.
Compound: Cc1cc(ccc1-c1ccccc1)C(=O)N1CCCN(CC1)C(=O)CCl [compound 10]
Test: probe-labelled cysteine peptide fold change vs DMSO (competition) (log2 fold change); higher = less target engagement (more negative = stronger competition)
Conditions: THP-1, incubation time: 4 h
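Further: competitive profiling in live THP-1 cells: cysteine peptides tagged with an iodoacetamide desthiobiotin (IA-DTB) probe, intensity after compound treatment relative to DMSO-treated cells.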

By UniProt entry, the sequences of proteins in these tests, tags left out. Where a name states a change or a piece, a line headed by the entry shows the natural chain unless it says otherwise.
UniProt Q9H269: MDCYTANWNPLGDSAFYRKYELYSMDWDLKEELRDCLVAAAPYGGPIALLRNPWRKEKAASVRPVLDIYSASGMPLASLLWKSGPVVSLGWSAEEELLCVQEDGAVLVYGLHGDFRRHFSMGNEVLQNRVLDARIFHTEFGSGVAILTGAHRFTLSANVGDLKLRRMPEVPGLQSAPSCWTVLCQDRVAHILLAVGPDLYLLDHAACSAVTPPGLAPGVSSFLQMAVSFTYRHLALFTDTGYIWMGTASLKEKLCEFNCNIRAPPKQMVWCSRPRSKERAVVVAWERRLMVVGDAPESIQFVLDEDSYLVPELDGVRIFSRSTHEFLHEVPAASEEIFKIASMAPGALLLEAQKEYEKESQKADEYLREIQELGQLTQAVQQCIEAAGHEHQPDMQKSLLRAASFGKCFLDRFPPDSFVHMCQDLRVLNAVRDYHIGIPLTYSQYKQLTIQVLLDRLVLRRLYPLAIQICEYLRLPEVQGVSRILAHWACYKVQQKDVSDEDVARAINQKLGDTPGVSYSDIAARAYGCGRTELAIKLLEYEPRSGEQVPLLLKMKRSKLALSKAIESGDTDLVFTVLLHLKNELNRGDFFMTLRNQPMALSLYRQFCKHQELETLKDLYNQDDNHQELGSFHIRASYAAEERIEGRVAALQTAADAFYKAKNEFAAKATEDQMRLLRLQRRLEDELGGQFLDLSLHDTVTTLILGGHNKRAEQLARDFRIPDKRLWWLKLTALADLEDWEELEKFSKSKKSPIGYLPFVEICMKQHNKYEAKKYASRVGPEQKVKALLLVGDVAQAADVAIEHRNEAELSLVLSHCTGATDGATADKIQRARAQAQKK
UniProt Q96AX1: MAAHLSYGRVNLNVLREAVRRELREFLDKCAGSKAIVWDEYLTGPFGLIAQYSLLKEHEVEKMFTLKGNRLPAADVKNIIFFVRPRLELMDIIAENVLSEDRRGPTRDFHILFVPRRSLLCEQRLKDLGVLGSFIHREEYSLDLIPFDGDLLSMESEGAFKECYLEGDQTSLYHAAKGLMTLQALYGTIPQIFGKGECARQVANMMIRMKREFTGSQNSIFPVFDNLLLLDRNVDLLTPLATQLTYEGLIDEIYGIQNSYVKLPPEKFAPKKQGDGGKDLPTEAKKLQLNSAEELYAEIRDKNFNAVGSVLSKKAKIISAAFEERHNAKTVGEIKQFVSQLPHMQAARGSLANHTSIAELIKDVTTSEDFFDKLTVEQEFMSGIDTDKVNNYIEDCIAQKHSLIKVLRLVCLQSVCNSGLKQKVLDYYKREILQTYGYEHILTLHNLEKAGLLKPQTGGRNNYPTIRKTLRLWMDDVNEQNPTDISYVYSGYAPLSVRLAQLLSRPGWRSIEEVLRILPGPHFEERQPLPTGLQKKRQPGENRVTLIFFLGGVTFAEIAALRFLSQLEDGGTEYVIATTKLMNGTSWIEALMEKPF
UniProt O00507: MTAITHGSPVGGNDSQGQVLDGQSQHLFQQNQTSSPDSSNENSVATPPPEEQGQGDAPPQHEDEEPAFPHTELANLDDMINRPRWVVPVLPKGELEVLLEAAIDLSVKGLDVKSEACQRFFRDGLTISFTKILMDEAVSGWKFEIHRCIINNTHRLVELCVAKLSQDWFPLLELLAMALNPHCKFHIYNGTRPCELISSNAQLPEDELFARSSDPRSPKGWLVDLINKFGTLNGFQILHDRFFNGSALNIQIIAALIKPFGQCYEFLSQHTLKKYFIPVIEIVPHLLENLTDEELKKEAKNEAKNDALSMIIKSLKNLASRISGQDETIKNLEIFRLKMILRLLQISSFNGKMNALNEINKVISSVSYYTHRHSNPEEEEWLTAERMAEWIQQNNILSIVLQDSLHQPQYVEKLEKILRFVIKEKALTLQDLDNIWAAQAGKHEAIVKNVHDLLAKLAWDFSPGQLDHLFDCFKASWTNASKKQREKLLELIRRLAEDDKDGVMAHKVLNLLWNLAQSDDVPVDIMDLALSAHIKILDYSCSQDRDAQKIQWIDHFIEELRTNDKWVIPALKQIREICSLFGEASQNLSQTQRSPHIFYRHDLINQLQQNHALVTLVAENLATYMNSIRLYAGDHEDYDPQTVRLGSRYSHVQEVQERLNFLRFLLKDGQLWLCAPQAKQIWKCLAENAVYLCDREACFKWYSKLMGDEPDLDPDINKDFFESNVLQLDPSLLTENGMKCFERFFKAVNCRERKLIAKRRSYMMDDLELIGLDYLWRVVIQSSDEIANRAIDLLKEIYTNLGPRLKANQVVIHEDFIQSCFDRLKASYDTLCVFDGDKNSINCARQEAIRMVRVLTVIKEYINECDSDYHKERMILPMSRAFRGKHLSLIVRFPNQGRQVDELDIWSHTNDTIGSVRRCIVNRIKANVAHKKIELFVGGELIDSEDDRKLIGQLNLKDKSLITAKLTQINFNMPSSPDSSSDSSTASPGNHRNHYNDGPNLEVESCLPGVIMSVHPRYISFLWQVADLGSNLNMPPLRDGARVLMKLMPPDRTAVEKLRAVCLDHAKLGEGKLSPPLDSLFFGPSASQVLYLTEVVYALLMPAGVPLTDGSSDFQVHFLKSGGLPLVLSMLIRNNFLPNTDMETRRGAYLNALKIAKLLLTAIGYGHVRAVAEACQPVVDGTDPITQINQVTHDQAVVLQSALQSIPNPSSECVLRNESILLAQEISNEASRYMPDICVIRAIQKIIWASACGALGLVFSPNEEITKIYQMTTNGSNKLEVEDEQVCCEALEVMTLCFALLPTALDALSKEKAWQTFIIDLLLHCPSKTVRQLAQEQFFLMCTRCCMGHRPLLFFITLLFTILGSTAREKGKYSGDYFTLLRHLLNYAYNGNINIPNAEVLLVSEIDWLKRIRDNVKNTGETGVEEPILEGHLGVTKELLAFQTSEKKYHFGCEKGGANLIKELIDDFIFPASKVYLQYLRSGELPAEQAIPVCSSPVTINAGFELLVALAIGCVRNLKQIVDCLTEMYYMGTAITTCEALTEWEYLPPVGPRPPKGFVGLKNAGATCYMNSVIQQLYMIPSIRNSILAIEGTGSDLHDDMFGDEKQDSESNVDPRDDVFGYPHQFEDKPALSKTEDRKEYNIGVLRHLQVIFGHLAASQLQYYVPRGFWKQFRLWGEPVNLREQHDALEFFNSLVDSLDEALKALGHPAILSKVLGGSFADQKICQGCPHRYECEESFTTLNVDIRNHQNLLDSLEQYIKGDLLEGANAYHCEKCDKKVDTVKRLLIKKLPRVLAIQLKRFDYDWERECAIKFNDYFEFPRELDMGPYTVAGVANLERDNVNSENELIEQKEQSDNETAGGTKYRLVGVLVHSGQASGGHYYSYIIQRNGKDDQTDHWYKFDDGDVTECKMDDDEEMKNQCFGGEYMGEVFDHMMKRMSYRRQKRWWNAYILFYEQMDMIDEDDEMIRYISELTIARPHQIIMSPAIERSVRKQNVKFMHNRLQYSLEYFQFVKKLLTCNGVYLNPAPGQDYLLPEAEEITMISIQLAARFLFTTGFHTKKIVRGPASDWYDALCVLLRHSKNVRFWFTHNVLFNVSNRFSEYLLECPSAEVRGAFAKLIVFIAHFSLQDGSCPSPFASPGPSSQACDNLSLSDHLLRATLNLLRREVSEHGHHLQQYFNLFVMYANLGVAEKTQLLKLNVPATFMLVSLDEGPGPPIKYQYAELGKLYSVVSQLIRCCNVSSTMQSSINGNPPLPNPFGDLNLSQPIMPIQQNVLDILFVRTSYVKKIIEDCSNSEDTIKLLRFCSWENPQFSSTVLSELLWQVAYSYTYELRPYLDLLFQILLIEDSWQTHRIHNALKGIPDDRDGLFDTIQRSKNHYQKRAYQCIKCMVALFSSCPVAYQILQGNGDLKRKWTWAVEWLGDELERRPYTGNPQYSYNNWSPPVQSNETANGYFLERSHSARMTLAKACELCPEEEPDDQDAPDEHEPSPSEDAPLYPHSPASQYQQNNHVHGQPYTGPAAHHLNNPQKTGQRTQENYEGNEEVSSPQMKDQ
UniProt Q96JC1: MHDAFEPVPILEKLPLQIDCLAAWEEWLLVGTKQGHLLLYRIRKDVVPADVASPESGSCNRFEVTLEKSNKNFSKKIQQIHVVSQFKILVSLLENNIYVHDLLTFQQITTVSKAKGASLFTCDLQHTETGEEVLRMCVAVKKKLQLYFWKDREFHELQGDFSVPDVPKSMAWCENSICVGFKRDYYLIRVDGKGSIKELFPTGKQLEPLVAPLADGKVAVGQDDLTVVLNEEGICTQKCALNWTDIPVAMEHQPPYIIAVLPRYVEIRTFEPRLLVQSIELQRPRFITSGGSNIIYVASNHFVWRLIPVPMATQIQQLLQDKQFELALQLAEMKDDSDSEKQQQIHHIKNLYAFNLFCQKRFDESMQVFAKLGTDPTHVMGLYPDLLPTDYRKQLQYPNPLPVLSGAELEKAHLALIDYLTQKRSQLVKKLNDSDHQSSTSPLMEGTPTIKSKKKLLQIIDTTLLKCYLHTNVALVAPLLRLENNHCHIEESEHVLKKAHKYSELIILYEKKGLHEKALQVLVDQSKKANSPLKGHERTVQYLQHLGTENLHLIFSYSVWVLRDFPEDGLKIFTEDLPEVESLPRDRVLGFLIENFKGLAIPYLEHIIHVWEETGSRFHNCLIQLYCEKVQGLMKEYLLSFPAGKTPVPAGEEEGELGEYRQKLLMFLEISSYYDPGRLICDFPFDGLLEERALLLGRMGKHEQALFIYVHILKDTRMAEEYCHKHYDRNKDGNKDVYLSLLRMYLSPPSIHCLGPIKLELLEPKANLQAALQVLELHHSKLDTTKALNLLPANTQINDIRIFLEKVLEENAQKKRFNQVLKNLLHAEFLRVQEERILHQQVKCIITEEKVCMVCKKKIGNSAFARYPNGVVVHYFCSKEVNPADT
UniProt Q9UN37: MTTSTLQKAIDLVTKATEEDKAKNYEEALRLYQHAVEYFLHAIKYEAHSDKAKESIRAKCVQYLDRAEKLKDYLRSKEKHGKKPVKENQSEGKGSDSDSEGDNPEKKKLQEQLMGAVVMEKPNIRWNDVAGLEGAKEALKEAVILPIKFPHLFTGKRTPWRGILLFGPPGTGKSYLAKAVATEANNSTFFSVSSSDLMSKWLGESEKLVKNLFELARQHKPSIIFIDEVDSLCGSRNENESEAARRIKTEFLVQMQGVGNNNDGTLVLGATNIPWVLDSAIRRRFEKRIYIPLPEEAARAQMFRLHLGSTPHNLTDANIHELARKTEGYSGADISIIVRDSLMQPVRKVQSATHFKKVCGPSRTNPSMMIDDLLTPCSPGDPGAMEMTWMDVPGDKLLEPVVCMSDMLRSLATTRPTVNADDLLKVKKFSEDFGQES
UniProt P26640: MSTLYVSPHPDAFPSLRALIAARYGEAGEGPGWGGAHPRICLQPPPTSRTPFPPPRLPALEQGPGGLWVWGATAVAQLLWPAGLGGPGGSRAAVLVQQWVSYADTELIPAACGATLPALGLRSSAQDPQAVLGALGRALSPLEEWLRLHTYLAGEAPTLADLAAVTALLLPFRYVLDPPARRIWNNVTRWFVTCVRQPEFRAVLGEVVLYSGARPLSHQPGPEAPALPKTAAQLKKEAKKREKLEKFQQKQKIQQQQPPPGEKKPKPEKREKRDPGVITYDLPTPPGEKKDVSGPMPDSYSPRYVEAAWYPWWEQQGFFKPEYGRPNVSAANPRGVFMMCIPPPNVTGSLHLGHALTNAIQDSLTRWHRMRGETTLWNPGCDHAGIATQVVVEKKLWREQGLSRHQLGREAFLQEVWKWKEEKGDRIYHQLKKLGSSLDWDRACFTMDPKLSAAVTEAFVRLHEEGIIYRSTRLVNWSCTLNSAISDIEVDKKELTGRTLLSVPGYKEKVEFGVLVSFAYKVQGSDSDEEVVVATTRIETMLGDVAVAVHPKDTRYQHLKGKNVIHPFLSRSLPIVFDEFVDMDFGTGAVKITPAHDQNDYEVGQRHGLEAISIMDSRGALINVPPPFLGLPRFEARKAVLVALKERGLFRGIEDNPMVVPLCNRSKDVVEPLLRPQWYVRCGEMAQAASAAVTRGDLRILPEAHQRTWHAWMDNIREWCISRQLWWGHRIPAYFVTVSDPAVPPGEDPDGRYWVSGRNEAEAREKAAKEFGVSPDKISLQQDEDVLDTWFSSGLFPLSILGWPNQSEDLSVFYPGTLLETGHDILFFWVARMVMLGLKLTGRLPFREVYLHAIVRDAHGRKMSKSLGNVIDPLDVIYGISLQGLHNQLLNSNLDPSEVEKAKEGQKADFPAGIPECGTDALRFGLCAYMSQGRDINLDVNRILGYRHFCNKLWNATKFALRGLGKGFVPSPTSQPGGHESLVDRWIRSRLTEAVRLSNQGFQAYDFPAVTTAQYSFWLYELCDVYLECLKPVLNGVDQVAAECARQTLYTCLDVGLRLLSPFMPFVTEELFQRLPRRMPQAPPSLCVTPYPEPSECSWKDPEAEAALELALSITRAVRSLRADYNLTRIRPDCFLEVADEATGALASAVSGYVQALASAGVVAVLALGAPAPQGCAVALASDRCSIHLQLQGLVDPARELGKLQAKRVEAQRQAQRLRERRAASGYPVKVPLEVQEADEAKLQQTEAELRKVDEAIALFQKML

Target	probe-labelled cysteine peptide fold change (10 µM)	probe-labelled cysteine peptide fold change (50 µM)
WASHC5_Q12768_11_MLDFLAENNLCGQAILR (UniProt Q12768)	0.00121	-0.0122
VASP_P50552_334_SSSSVTTSETQPCTPSSSDYSDLQR (UniProt P50552)	-0.114	-0.417
VCPIP1_Q96JH7_517_NYSFPLNNLVCSYDSVK (UniProt Q96JH7)	0.0884	0.1
VPS16_Q9H269_408+422_CFLDRFPPDSFVHMCQDLR (UniProt Q9H269)	0.0284	-0.126
VAPA_Q9P0L0_179_KLMEECK (UniProt Q9P0L0)	-0.0535	-0.275
VPS33A_Q96AX1_121_SLLCEQR (UniProt Q96AX1)	-0.13	0.103
USP9Y_O00507_1910_FDDGDVTECK (UniProt O00507)	-0.232	0.0297
UTRN_P46939_1627_LCVLNAGWSR (UniProt P46939)	0.0181	-0.243
VPS39_Q96JC1_723_MAEEYCHK (UniProt Q96JC1)	0.106	-0.084
VTA1_Q9NP79_87_QLGDNEAITQEIVGCAHLENYALK (UniProt Q9NP79)	0.0147	0.136
VCP_P55072_535_AIANECQANFISIK (UniProt P55072)	-0.148	-0.299
VRK3_Q8IV63_288_SVLQVACR (UniProt Q8IV63)	0.143	0.0779
VIRMA_Q69YN4_781_CTASEETDHSDLLGTLHNLYLITFNPVGR (UniProt Q69YN4)	0.189	0.139
WAC_Q9BTA9_553_STCSLTPALAAHFSENLIK (UniProt Q9BTA9)	0.0122	-0.619
VPS33B_Q9H267_82_VENKPALSSNEQLCFLVRPR (UniProt Q9H267)	0.0977	0.0279
VPS28_Q9UK41_103_LDCPLAMER (UniProt Q9UK41)	-0.133	-0.223
VPS13C_Q709C8_1098_LNAFCVIVCNEK (UniProt Q709C8)	-0.0962	0.0577
VPS35_Q96QK1_253_QIVLTGILEQVVNCR (UniProt Q96QK1)	0.0589	0.00614
VPS39_Q96JC1_239_CALNWTDIPVAMEHQPPYIIAVLPR (UniProt Q96JC1)	0.024	-0.149
VIPAS39_Q9H9C1_446_CHDVVIDTYR (UniProt Q9H9C1)	0.117	-0.0289

Target	probe-labelled cysteine peptide fold change (10 µM)	probe-labelled cysteine peptide fold change (50 µM)
VCP_P55072_209_REDEEESLNEVGYDDIGGCR (UniProt P55072)	-0.0285	0.813
VPS4A_Q9UN37_233_PSIIFIDEVDSLCGSR (UniProt Q9UN37)	0.251	-0.276
VSIR_Q9H7M9_83_GEVQTCSER (UniProt Q9H7M9)	-0.102	0.23
VARS_P26640_194_WFVTCVR (UniProt P26640)	-0.398	0.162
USP9Y_O00507_1568_NAGATCYMNSVIQQLYMIPSIR (UniProt O00507)	0.116	0.0781
UTP18_Q9Y5J1_241_NCQHANAERPTVAR (UniProt Q9Y5J1)	-0.0377	-0.0456
VPS29_Q9UBQ0_36+41_IQHILCTGNLCTK (UniProt Q9UBQ0)	-0.0434	-0.0728
VCP_P55072_174+184_VVETDPSPYCIVAPDTVIHCEGEPIKR (UniProt P55072)	-0.472	0.096
UTP6_Q9NYH9_524_EQESCNMANIR (UniProt Q9NYH9)	0.129	-0.0741
UVRAG_Q9P2Y5_186_TILLQVDQNCVR (UniProt Q9P2Y5)	-0.089	-0.0238
VIRMA_Q69YN4_1559+1560_CCSDFDLHSELER (UniProt Q69YN4)	-0.377	-0.427
VPS16_Q9H269_36_EELRDCLVAAAPYGGPIALLR (UniProt Q9H269)	0.339	0.551
VPS33A_Q96AX1_163_ECYLEGDQTSLYHAAK (UniProt Q96AX1)	-0.0226	0.253
VPS35_Q96QK1_156_NYLLQCTR (UniProt Q96QK1)	-0.0574	-0.116
VAC14_Q08AM6_101_ELIEPVLTCFNDADSR (UniProt Q08AM6)	-0.424	-0.0886
VARS_P26640_41_ICLQPPPTSR (UniProt P26640)	0.0632	-0.101
WARS_P23381_274_GIFGFTDSDCIGK (UniProt P23381)	-0.0361	0.173
VPS11_Q9H270_709_QVISVCER (UniProt Q9H270)	0.147	-0.00341
VAV2_P52735_557_CGVGAHK (UniProt P52735)	0.0428	-0.182
VPS39_Q96JC1_877_YPNGVVVHYFCSK (UniProt Q96JC1)	0.156	0.168

Source: the supplement of paper PMC12067093, “Discovery and optimisation of a covalent ligand for TRIM25 and its application to targeted protein ubiquitination” (Chemical Science, 2025)
